No constants are given. Whether binding was seen depends on the method and setting. Binding can be weak; no strength is given.
Legend:
[1] = biological target: rabbit PAI-1 (rabbit); assay: P-ELISA: biotin-labeled PAI-1 on streptavidin/Neutravidin coated wells, HRP-conjugated secondary antibody, O.D. 450
[2] = biological target: rabbit PAI-1 (rabbit); assay: P-ELISA
[3] = biological target: rabbit PAI-1 (rabbit); assay: P-ELISA (FIG. 12 legend)

binding [1]: binds
binding [2]: binds
binding [3]: binds
B1: CT140 (humanized version of murine monoclonal antibody 33B8, IgG4 with the hinge of IgG1) (antibody, V domains shown)
VH: QVQLVQSGAEVKKPGASVKVSCKASGYTFTNYGMNWVRQAPGQGLEWMGWINTYTGEPTYTDDFKGRFTMTLDTSISTAYMELSRLRSDDTAVYYCAKDVSGFVFDYWGQGTLVTVSS
VL: DIVMTQSPDSLAVSLGERATINCKSSQSLLNIIKQKNCLAWYQQKPGQPPKLLIYWASTRESGVPDRFSGSGSGTDFTLTISSLQAEDVAVYYCQQYYSYPYTFGQGTKLEIKR

Reference: US20090136500A1
